Where “and” joins values, the source holds several entries; their conditions need not be identical. Equal entries are not always repeated. ± gives the standard deviation of the averaged measurements. Over roughly 3,800 compounds, “cell shape (eccentricity) Z-score vs DMSO control” has its median near 1.1; the lowest 2% begin near -4.7. This is one part of the list.

These results are taken from the supplement of paper PMC7858590.

This assay deals with human monocyte-derived macrophages (M0). Nature of the assay: cell shape (eccentricity) Z-score vs DMSO control; higher = more elongated, M2-like morphology. Conditions: 20 µM; 24 h; macrophage state: M0 (M-CSF).
`COc1ccc2c(c1)OC1(O)COc3cc(OC)c(OC)cc3C1=C2` (centres undefined): the “cell shape (Z-score)” value came out at 3.52.
Under `O=C(Nc1cc(CN2CCNCC2)cc(-c2nc3ccccc3[nH]2)c1)c1cnc2ccccc2n1` stands 2.25; under `COc1cccc2c1C(=O)c1ccc3c(c1C2=O)C(=O)CC(C)(O)C3` (centres undefined), -0.685; under `O=C(O)CCC(=O)Cc1ccccc1`, 1.26.
Take `COC1=CC(=O)C(=O)C/C1=C\C=C\c1ccccc1`: the “cell shape (Z-score)” value stood at 1.49.
Then `COc1ccc([C@H]2CNC(=O)C2)cc1OC1CCCC1`, with 5.39.
Then `COc1cc2c(CCNC(C)=O)c[nH]c2cc1Cl`, with 1.18; and `COc1c(C)c2c(c(O)c1C/C=C(\C)CCC(=O)O)C(=O)OC2`, with -3.16; and `C=C1/C(=C\C=C2/CCC[C@]3(C)C(C(C)C/C=C/C(O)(CC)CC)=CC[C@@H]23)C[C@@H](O)C[C@@H]1F` (some centres undefined), with 3.94.
Regarding `O=c1c(O)c(-c2ccccc2)oc2ccccc12`, the “cell shape (Z-score)” value amounted to 1.62.
`CC[C@@]1(O)C(=O)OCc2c1cc1n(c2=O)Cc2cc3c(CN(C)C)c(O)ccc3nc2-1`: the “cell shape (Z-score)” value is -2.01 and -0.904.
Regarding `CCN(CC)CCOC(=O)C(c1ccccc1)c1ccccc1`, the “cell shape (Z-score)” value is 3.12.
On to `CCOC(=O)c1ccc(N)cc1`, for which the “cell shape (Z-score)” value is -0.083.
Regarding `CC(C)(C)CC(C)(C)c1ccc(O)c(Cc2ccc(Cl)cc2Cl)c1`, the “cell shape (Z-score)” value is -1.35.
`CCCCC(C=O)NC(=O)C(CC(C)C)NC(=O)OCc1ccccc1` (centres undefined): the “cell shape (Z-score)” value is 1.22.
For the compound `CCCN(CCC)C(=O)C(CCC(=O)O)NC(=O)c1ccccc1` (centres undefined), the “cell shape (Z-score)” value came to 0.978.
As for `CC1=C(CC/C(C)=C/C(=O)O)[C@@]2(C)CCCC(C)(C)C2CC1` (some centres undefined), the “cell shape (Z-score)” value is -3.29.
Then `COc1cc(OC)c(O[C@@H]2O[C@H](COC(=O)c3cc(O)c(O)c(O)c3)[C@@H](O)[C@H](O)[C@H]2O)c(OC)c1`, with -0.208; and `COc1cc2oc(-c3ccc(O)cc3)cc(=O)c2c(O)c1OC`, with 6.67.
With `COc1cc2c(cc1-c1c(C)noc1C)ncc1[nH]c(=O)n([C@H](C)c3ccccn3)c12`, the “cell shape (Z-score)” value is 10.2.
Turning to `COc1cc(NC(C)CCCN)c2ncccc2c1` (centres undefined), the “cell shape (Z-score)” value was -0.136.
With `CC1(C)CCN(c2ccc(C(=O)NS(=O)(=O)c3ccc(NCCSc4ccccc4)c([N+](=O)[O-])c3)cc2)CC1`, the “cell shape (Z-score)” value is 2.76.
Take `COc1ccc(-c2cc(=O)c3c(O)c(OC)c(OC)c(OC)c3o2)cc1OC`: the “cell shape (Z-score)” value amounted to 4.17.
Regarding `CC1OC(O[C@H]2[C@@H](O)C[C@@]3(C)C(CC[C@]4(C)C3CC=C3[C@@H]5CC(C)(C)CC[C@]5(C(=O)OC5OC(C)C(OC6OCC(OC7OCC(O)C(OC8OCC(O)C(O)C8O)C7O)C(O)C6O)C(O)C5O)CC[C@]34C)[C@]2(C)CO)C(O)C(OC2OC(CO)C(O)C(O)C2O)C1O` (some centres undefined), the “cell shape (Z-score)” value is 0.13.
As for `Cc1ccc2c(c1)C(=O)C1(O)CCN(c3ccccc3)C1=N2` (centres undefined), the “cell shape (Z-score)” value came out at 4.21.
Then `COc1cc(O)c(C(=O)c2c(O)cc(C)cc2O)c(C(=O)O)c1`, with 1.14 ± 0.29; and `COc1ccc2cc([C@H](C)CO)ccc2c1`, with 1.72; and `CN(C)C(=O)c1ccc(S(=O)(=O)c2ccc(NC(=O)[C@@](C)(O)C(F)(F)F)c(Cl)c2)cc1`, with 0.907.
Under `COc1cc(O[C@@H]2O[C@H](CO)[C@@H](O)[C@H](O)[C@H]2O)cc(OC)c1OC` stands 1.98; under `O=C(C=Cc1ccc(O)c(O)c1)OCCc1ccccc1`, -1.93; under `COc1ccc2ccc(=O)oc2c1CC(O)C(C)(C)O` (centres undefined), 0.763.
As to `COc1ccc2c3c1O[C@H]1C[C@@H](O)C=C[C@@]31CCN(C)C2`, the “cell shape (Z-score)” value amounted to 1.93.
Then `Cc1cc(O)c(C)c2c1Oc1c(C)c(O)cc(C)c1C(=O)O2`, with -6.49; and `CC(C)(C)c1cc(/C=C(\C#N)C(N)=S)cc(C(C)(C)C)c1O`, with -0.33.
With `NCCNS(=O)(=O)c1cccc2cnccc12`, the “cell shape (Z-score)” value is -0.135.
Under `COc1cc2c(cc1OC)C(=O)OC2` stands -1.22; under `Oc1cc2c(c(Cl)c1O)CCNCC2c1ccccc1` (centres undefined), 2.16; under `NS(=O)(=O)c1cc(C(=O)O)c(NCc2ccco2)cc1Cl`, 1.08.
`CCOC(=O)C1C(=O)C(=O)Nc2ccccc21` (centres undefined): the “cell shape (Z-score)” value was found to be 2.09.
As to `O=C1c2ccccc2C(Cc2ccnc(F)c2)(Cc2ccnc(F)c2)c2ccccc21`, the “cell shape (Z-score)” value was -4.23.
Consider `COc1cc(C)c(C(=O)Oc2cc(C)c(C(=O)O)c(O)c2C)c(OC)c1C`, for which the “cell shape (Z-score)” value is -0.976.
Under `CC(=O)O[C@@H]1CC2C(C)(C)CCC[C@]2(CO)C2=C1C(=O)C(C(C)C)C(=O)C2=O` (some centres undefined) stands -0.0999; under `CCC(=O)OCC1=CCCC2C1(C)CCC(C)C2(C)CCC(C)CC(=O)O` (centres undefined), 0.255; under `NS(=O)(=O)c1cc2c(cc1Cl)NC(C1CC3C=CC1C3)NS2(=O)=O` (centres undefined), 2.88.
Regarding `COc1ccc2c(c1)OCC(Cc1ccc(OC)c(O)c1)C2=O` (centres undefined), the “cell shape (Z-score)” value is -0.431.
In the case of `CC#CC1(O)CCC2C3CCC4=CC(=O)CCC4=C3C(c3ccc(N(C)C)cc3)CC21C` (centres undefined), the “cell shape (Z-score)” value stood at 0.153.
As for `C/C(=C\c1ccc(C(=O)O)cc1)c1ccc2c(c1)C(C)(C)CCC2(C)C`, the “cell shape (Z-score)” value worked out at 11.
As for `C[C@]12CCC3c4ccc(OS(=O)(=O)O)cc4CCC3C1CCC2=O` (some centres undefined), the “cell shape (Z-score)” value stood at 3.08.
Take `CC(=O)OC(C)(C)[C@@H]1Cc2cc3ccc(=O)oc3cc2O1`: the “cell shape (Z-score)” value turned out to be 3.1.
As for `CCC1OC(=O)[C@H](C)C(=O)[C@H](C)[C@@H](OC2O[C@H](C)C[C@H](N(C)C)[C@H]2O)[C@](C)(OC)C[C@@H](C)C(=O)[C@H](C)[C@H]2N(CCCCn3cnc(-c4cccnc4)c3)C(=O)O[C@@]12C` (some centres undefined), the “cell shape (Z-score)” value came to 0.0565.
On to `NCCNS(=O)(=O)c1cccc2c(Cl)cccc12`, for which the “cell shape (Z-score)” value worked out at 4.03.
Under `CCCCCCCCNC(=O)C(Cc1ccc(OCc2ccncc2)cc1)NC(=O)C1CCC(CN)CC1` (centres undefined) stands 0.253; under `C#CCN(C)Cc1ccccc1`, 3.91; under `C=C(C)C(O)Cc1c(OC)cc2oc(=O)ccc2c1OC` (centres undefined), 2.06.
Turning to `COc1c2ccoc2cc2oc(=O)ccc12`, the “cell shape (Z-score)” value is 4.33.
Under `C/C=C(/C)C(=O)O[C@@H]1C[C@@H](OC(=O)/C(C)=C\C)[C@](C)(CO)C2C3C(=O)C[C@@H](C)C2[C@]31C` stands 1.6; under `COc1ccc(C(=O)Oc2ccc(C)c3c2C(=O)OC(C)C3)c2c1C(=O)OC(C)C2` (centres undefined), -0.0802.
Under `CC1COc2c(N3CCN(C)CC3)c(F)cc3c(=O)c(C(=O)O)cn1c23` (centres undefined) stands -0.258; under `CN(C)CCOC(c1ccc(Cl)cc1)c1ccccn1` (centres undefined), 2.56.
On to `O=C(NO)c1cccc(C(=O)Nc2ccccc2)c1`, for which the “cell shape (Z-score)” value was 2.99.
Under `COc1ccc(C2Oc3cc(OC)ccc3CC2O)cc1` (centres undefined) stands 1.66 ± 1.2.
For the compound `COc1cc(O)c2c(=O)cc(-c3ccccc3)oc2c1OC`, the “cell shape (Z-score)” value was 2.46.
In the case of `CC(C)[C@H](CO)Nc1nc(Nc2ccc(C(=O)O)c(Cl)c2)c2ncn(C(C)C)c2n1`, the “cell shape (Z-score)” value stood at 1.97.
On to `CC(C)=CCC1Cc2c(cc(O)c(C(=O)C(C)C)c2O)OC1(C)C` (centres undefined), for which the “cell shape (Z-score)” value is 3.41.
